From article PMC5996148
The list shows a part of the results. For some assays here: Construct or isoform of the protein are uncertain.

How the values were obtained:
Assay in all cases: protein microarray (ProtoArray v5.0), streptavidin-Alexa Fluor 647
Settings in all cases: 3'-biotin; 20 mM Tris (pH 7.5), 5 mM MgCl2, 100 mM KCl, 0.1% Tween-20, A/T-rich and random oligonucleotide blockers; temperature not stated; high values mean tight binding
[1] = test system: StAR-related lipid transfer protein 4 (human)
[2] = test system: StAR-related lipid transfer protein 5 (human)
[3] = test system: Stathmin (human)
[4] = test system: Sterol-4-alpha-carboxylate 3-dehydrogenase, decarboxylating (human)
[5] = test system: Suppressor of SWI4 1 homolog (human)
[6] = test system: Suprabasin (human)
[7] = test system: Synaptonemal complex protein 2-like (human)
[8] = test system: Syndecan-1 (human)
[9] = test system: Synembryn-A (human)
[10] = test system: T-complex protein 11-like protein 2 (human)
[11] = test system: TANK (human)
[12] = test system: TBC1 domain family member 13 (human)
[13] = test system: TBC1D7 (human)
[14] = test system: TBC1D9B (human)
[15] = test system: TBCD (human)
[16] = test system: TBL1X (human)
[17] = test system: TCP11 (human)
[18] = test system: TCP11L1 (human)
[19] = target: T1, TEKT4 (UniProt Q8WW24)
T1 sequence: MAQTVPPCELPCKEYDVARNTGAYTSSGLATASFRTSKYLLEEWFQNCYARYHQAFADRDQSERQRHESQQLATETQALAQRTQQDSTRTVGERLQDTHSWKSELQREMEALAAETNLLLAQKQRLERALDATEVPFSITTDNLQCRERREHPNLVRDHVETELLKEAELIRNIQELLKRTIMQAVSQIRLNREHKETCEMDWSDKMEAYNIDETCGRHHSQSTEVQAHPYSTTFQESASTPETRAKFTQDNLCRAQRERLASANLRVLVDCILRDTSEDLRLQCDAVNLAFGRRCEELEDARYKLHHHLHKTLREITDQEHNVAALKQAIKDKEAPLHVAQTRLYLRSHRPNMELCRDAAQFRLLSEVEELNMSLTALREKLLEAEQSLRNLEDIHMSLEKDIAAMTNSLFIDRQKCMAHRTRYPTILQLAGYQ

[20] = test system: TESC (human)

“GGTGACAGGGGTATGGGGAGGGG [G4-2 biotinylated (Ct1)]” was tested. Which binding signal [1] did it give?
The binding signal was -0.389 z-score.

And the binding signal [2]?
The binding signal was -0.376 z-score.

And the binding signal [3]?
Its binding signal is -0.365 z-score.

And the binding signal [4]?
Its binding signal is -0.383 z-score.

And the binding signal [5]?
Its binding signal is 3.61 z-score.

What about the binding signal [6] of the same sequence?
Its binding signal is -0.401 z-score.

And the binding signal [7]?
The binding signal was -0.369 z-score.

What about the binding signal [8] of the same sequence?
The binding signal was -0.373 z-score.

And the binding signal [9]?
The binding signal was -0.391 z-score.

And the binding signal [10]?
Its binding signal is -0.39 z-score.

And the binding signal [11]?
The binding signal was -0.386 z-score.

What about the binding signal [12] of the same sequence?
Its binding signal is -0.401 z-score.

And the binding signal [13]?
Its binding signal is -0.392 z-score.

What about the binding signal [14] of the same sequence?
The binding signal was -0.37 z-score.

What about the binding signal [15] of the same sequence?
Its binding signal is -0.39 z-score.

And the binding signal [16]?
The binding signal was -0.398 z-score.

And the binding signal [17]?
The binding signal was -0.394 z-score.

What about the binding signal [18] of the same sequence?
Its binding signal is -0.372 z-score.

What about the binding signal [19] of the same sequence?
Its binding signal is -0.379 z-score.

What about the binding signal [20] of the same sequence?
Its binding signal is -0.385 z-score.
